From paper PMC11102862
No constants are given. Whether binding was seen depends on the method and setting. In cells and extracts the contact can be indirect. These calls come from enrichment with a bait or labelling near it, and not all partners need be listed. Sequences can lack the tags named with a protein.

Sequences of proteins named here, by UniProt entry; tags and fusion partners are left off.
UniProt Q9Y5U2: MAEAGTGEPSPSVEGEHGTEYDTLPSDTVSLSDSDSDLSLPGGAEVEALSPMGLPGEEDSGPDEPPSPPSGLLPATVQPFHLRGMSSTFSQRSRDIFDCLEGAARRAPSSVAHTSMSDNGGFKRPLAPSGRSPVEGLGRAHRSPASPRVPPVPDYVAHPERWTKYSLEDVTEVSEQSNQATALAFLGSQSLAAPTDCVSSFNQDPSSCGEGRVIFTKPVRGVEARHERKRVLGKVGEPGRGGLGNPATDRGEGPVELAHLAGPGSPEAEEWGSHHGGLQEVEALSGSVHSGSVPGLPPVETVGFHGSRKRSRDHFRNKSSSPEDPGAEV
UniProt O75643: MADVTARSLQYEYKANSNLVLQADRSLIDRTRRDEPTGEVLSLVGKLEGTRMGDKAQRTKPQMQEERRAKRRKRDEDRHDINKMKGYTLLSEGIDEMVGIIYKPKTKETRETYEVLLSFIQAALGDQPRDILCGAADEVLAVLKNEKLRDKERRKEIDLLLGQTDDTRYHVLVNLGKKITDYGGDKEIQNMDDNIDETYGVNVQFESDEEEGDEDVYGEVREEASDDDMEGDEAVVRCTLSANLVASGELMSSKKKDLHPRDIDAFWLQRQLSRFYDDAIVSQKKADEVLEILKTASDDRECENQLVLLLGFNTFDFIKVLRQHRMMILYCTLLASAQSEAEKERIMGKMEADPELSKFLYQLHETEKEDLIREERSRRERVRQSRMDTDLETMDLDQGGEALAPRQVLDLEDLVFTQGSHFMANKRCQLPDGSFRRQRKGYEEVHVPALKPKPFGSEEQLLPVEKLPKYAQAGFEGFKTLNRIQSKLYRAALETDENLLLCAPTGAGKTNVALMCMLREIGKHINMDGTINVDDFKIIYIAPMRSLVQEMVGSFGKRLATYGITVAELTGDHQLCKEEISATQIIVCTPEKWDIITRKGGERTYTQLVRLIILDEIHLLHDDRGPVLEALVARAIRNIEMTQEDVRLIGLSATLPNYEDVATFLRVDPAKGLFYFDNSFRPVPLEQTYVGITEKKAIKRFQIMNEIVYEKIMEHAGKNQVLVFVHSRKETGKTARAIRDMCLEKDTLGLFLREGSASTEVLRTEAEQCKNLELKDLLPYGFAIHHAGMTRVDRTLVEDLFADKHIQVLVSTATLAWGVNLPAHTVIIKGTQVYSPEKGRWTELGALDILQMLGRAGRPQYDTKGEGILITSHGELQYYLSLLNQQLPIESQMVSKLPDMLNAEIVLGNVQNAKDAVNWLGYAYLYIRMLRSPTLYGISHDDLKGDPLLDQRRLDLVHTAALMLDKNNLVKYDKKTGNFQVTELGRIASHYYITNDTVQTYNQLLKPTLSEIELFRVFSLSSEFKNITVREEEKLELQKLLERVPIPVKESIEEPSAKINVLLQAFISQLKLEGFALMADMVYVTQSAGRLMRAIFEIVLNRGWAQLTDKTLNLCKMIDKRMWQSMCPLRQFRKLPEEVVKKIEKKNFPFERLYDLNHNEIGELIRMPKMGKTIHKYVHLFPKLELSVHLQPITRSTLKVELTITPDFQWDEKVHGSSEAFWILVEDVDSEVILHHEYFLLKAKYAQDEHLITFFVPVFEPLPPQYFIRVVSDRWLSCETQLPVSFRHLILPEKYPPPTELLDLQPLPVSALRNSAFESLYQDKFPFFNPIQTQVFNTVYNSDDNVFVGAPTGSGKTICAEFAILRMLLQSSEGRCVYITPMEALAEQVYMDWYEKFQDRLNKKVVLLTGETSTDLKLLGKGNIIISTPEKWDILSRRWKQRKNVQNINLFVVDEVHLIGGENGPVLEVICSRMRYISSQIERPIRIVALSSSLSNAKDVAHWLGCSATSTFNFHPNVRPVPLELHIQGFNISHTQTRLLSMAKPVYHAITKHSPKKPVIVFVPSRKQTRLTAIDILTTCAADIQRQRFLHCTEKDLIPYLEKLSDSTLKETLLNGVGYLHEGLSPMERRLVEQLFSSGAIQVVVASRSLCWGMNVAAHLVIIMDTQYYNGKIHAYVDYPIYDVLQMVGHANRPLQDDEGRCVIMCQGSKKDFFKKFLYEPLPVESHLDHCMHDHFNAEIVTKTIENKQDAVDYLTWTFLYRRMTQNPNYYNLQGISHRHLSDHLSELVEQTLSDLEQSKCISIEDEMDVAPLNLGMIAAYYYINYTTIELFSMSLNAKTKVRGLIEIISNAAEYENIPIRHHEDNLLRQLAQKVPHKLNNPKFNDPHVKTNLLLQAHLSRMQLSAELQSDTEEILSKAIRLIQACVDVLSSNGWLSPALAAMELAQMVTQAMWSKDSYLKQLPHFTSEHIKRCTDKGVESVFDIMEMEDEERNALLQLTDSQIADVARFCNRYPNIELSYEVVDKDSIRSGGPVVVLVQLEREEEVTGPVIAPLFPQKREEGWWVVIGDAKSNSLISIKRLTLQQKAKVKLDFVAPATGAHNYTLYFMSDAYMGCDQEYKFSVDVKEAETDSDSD

Biological target: T1, 3xFLAG_TEV_SBP-tagged CD2BP2 (human) (UniProt O95400)
T1 sequence: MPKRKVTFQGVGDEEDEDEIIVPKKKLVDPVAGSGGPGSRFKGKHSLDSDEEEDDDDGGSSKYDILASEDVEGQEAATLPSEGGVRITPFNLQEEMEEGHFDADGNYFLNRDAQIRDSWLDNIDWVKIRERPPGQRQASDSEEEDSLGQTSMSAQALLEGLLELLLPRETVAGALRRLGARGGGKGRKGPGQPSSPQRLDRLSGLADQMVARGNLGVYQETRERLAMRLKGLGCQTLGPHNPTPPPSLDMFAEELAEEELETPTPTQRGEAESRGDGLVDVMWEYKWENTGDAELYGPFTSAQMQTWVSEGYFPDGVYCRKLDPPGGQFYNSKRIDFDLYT
Experiment: affinity purification with mass spectrometry; 3xFLAG_TEV_SBP-CD2BP2 as bait from 293-F nuclear extract adjusted to 500 mM KCl; anti-FLAG M2 gel, TEV elution, streptavidin agarose, biotin elution; composition by solution mass spectrometry (Extended Data Table 1), members also seen in the cryo-EM map of the same preparation

In the case of TSSC4 (from UniProt Q9Y5U2 1-329), the binding was “binds”.
With “BRR2 (from UniProt O75643 1-2136) (enzyme)” the binding was “binds”.
